Reference: publication PMC7247313
These are yes or no findings as the source states them, for the method shown. In cells and extracts the contact can be indirect. Some results given as binding are weak or reduced against the parent protein; the word gives no strength.

Amino acid sequences for entries named in this document (tags omitted). A change or cut given only in a name is not applied to a line headed by its entry. Chains listed by the source or under a name are the forms on record and can include a tag or linker.
UniProt P60881: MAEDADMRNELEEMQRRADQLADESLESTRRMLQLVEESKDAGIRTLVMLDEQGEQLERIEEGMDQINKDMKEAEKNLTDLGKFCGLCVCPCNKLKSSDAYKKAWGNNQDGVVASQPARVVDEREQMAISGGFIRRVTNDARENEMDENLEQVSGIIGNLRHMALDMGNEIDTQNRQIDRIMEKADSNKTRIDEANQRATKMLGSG
EGFP SNAP25b Δ(101–108) deletion mutant (P60881, form named): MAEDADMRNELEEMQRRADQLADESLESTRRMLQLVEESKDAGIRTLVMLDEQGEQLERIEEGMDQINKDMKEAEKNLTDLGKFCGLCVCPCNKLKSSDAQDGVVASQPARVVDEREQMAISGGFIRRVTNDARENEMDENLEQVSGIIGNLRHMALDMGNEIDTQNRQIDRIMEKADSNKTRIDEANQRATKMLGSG
UniProt Q8IUH5: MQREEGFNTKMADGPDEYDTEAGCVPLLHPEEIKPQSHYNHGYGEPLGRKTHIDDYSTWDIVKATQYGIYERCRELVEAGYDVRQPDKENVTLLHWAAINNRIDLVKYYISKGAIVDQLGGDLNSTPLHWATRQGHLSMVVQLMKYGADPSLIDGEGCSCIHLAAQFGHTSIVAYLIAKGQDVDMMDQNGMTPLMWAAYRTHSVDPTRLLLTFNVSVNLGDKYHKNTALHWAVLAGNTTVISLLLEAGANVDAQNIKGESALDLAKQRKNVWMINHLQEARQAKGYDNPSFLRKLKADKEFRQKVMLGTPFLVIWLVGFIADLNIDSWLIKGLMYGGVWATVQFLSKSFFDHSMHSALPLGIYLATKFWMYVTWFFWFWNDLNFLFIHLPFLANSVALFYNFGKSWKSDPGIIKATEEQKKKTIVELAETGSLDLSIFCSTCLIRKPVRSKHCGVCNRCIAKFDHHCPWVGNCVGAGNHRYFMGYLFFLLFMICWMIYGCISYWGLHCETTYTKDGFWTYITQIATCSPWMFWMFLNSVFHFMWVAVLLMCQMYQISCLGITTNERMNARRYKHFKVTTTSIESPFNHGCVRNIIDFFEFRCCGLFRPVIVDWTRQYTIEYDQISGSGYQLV

How the values were obtained:
Test in all cases: co-IP; HEK293T cells co-transfected with EGFP-SNAP25 constructs and HA-zDHHC17; lysed in PBS, 0.5% Triton X-100, adjusted to 0.2% Triton X-100; GFP-Trap-agarose beads, 4 °C, 1 h; blots with anti-GFP and anti-HA
[1] = molecular target: EGFP SNAP25b WT (rat) (UniProt P60881)
[2] = molecular target: EGFP SNAP25b Δ(101–108) deletion mutant (rat) (UniProt P60881)
[3] = molecular target: GFP SNAP25b P117G (rat) (UniProt P60881)

binding [1]: binds
binding [2]: binds
binding [3]: no binding
Substance: HA zDHHC17 (from UniProt Q8IUH5 1-632) (enzyme)
